The text below walks through data of PubChem BioAssay AID2685 (National Center for Advancing Translational Sciences (NCATS), 2010).

The assay in a line: qHTS Assay for Lipid Storage Modulators in Drosophila S3 Cells.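 For cell number change: cells counted by Cell Tracker Red CMTPX staining in the red channel.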 The following applies: BODIPY lipid droplet fluorescence, 18-24 h; for cell number change: measured here: cell count max response, cells fed with added oleic acid. A digest of the protocol:
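Drosophila S3 cells got compounds at several concentrations plus oleic acid (400 uM solution). Laser-scanning cytometry with 488 nm excitation read lipid droplets at 500-530 nm and cells at 575-640 nm. Percent activity was relative to 20 uM Triacsin C.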
For orientation: Quantitative high-throughput screening tests each substance at several concentrations.

The mark [1] stands for this setting: measured here: lipid fluorescence (Fed channel) AC50, cells fed with added oleic acid.
Where [2] appears, read: measured here: cell number channel AC50, cells fed with added oleic acid.

This is one part of the list. Further columns of the screen follow, without active or inactive calls. Most of these compounds were active or inconclusive in the main read-out, so they are no random draw. Words in brackets tell the shape of the fitted curve; partial curves, single points and poor fits give uncertain potencies.

By AC50 is commonly meant the concentration at which the activity in the assay is half-maximal. Regarding `CS(=O)(=O)N1CCN(C2CCN(Cc3ccccc3)CC2)CC1`, the cell number change was -0.469%. Further, the AC50 under setting [1] was 29.1 µM [falling, single point].

On to `CCCCCNCc1cccn1C`, for which the cell number change is -18.4%.

`Cc1ccc(NC(=O)CC(N)=S)cc1`: the cell number change is 11.5%. Also, the AC50 under setting [1] was 23.1 µM [falling, single point].

Regarding `O=[N+]([O-])c1cnc(Nc2ccc(Cl)cn2)c([N+](=O)[O-])c1`, the cell number change was -15.9%. Also, the AC50 under setting [1] was 18.4 µM [falling, single point].

`CCOCCCNC(=O)C(NC(=O)Cc1cccs1)c1ccccc1` (stereo unspecified): the cell number change came out at 34%. Moreover, the AC50 under setting [2] is 13 µM [rising, single point]. Besides, under setting [1], the AC50 was 18.4 µM [rising, single point].

On to `CCOc1ccccc1NC(=O)CNC(=O)Cc1ccccc1`, for which the cell number change was 40.6%. Also, the concentration at half-maximal activity (AC50) under setting [2] was 29.1 µM [rising, partial curve, poor fit]. Besides, the half-maximal activity concentration (AC50) under setting [1] is 25.9 µM [rising, partial curve].

Regarding `O=C(Nc1ccc2cn[nH]c2c1)c1ccccc1F`, the cell number change was 28.9%. In addition, the AC50 under setting [1] is 0.92 µM [rising, partial curve, poor fit].

Take `COc1ccc(OCC(=O)Nc2ccc(N3CCOCC3)cc2)cc1`: the cell number change came out at 3.78%. The AC50 under setting [1] was 0.206 µM [rising, full curve].

Consider `CC1(C)Cc2ccccc2-c2nnc(SCC(=O)N3CCN(c4ccccc4)CC3)n21`, for which the cell number change was -11.2%.

In the case of `CCc1ccc(N2CC(C(=O)OCC(=O)Nc3ccc([N+](=O)[O-])cc3)CC2=O)cc1` (stereo unspecified), the cell number change turned out to be 19.4%. The AC50 under setting [1] was 29.1 µM [rising, single point].

For the compound `Cn1c(=O)[nH]c(=O)c2c1nc(N)n2Cc1ccccc1`, the cell number change turned out to be 80.1%. The AC50 under setting [2] was 25.9 µM [rising, partial curve].

For `CCOc1c(C)cnc2c1c(=O)n(Cc1ccc(Cl)cc1)c(=O)n2C`, the cell number change was 19.9%. Also, under setting [1], the AC50 was 29.1 µM [rising, single point].

Turning to `O=C1NCCN(Cc2c(F)cccc2Cl)C1CC(=O)N1CCCCO1` (stereo unspecified), the cell number change is 14.3%.

Regarding `O=C(c1ccccc1)c1ccccc1N1C(=O)C=CC1=O`, the cell number change was -65.7%. Under setting [2], the AC50 was 5.8 µM [falling, full curve]. Further, the half-maximal activity concentration (AC50) under setting [1] is 6.51 µM [falling, full curve].

Turning to `CCCc1c(C)c2ccc(OCC(C)=O)cc2oc1=O`, the cell number change was determined as 32.9%. Further, the AC50 under setting [2] was 0.82 µM [rising, full curve, poor fit].

`O=C(CCS(=O)(=O)Cc1ccccc1)Nc1ncc([N+](=O)[O-])s1`: the cell number change stood at 10.1%. In addition, the AC50 under setting [1] was 1.84 µM [rising, partial curve].

On to `CCOC(=O)c1c(NC2=NS(=O)(=O)c3ccccc32)sc2c1CCC(C)C2` (stereo unspecified), for which the cell number change was -7.57%. In addition, the AC50 under setting [2] is 0.103 µM [falling, full curve, poor fit].

For the compound `CCCCOC(=O)c1cc(C)nc2ccc(Br)cc12`, the cell number change is -11.9%. For the same compound, the AC50 under setting [1] was 5.17 µM [rising, single point].

In the case of `CN(CCc1ccccn1)C(=O)CCC1CCCN(C(=O)c2cccc(N(C)C)c2)C1` (stereo unspecified), the cell number change was -36.4%.

As to `C[C@@H](C(=O)Nc1ccccc1N1CCOCC1)N1C(=O)C2CC=CCC2C1=O` (stereo partly specified), the cell number change is 62.2%. Besides, the AC50 under setting [2] was 18.4 µM [rising, partial curve].

As for `COc1ccc(CN2CCC(=O)N([C@H](CO)Cc3ccccc3)CC2)cc1`, the cell number change is 21.3%. In addition, the half-maximal activity concentration (AC50) under setting [1] was 29.1 µM [falling, single point].

On to `CCN(Cc1nc2ccccc2c(=O)[nH]1)C(=O)CN1C(=O)NC2(CCCCC2C)C1=O` (stereo unspecified), for which the cell number change is -1.75%. Moreover, the AC50 under setting [1] was 4.61 µM [rising, partial curve, poor fit].

Turning to `COc1ccc(CCc2nnc(NS(C)(=O)=O)s2)cc1`, the cell number change was -13.2%.

With `O.O.O.O=S(=O)([O-])OC[C@H]1O[C@@H](O[C@]2(COS(=O)(=O)[O-])O[C@H](OS(=O)(=O)[O-])[C@@H](OS(=O)(=O)[O-])[C@@H]2OS(=O)(=O)[O-])[C@H](OS(=O)(=O)[O-])[C@@H](OS(=O)(=O)[O-])[C@@H]1OS(=O)(=O)[O-].[Al]`, the cell number change was found to be 29.8%. Also, the AC50 under setting [1] was 0.146 µM [rising, full curve, poor fit].

Regarding `COC(C(=O)NC1CCCCCCC1)c1ccccc1` (stereo unspecified), the cell number change is -2.12%.

`COC(=O)CC1C(=O)NCCN1C(=O)c1ccccc1` (stereo unspecified): the cell number change is -13.7%. For the same compound, the half-maximal activity concentration (AC50) under setting [2] was 6.51 µM [falling, single point]. Also, the AC50 under setting [1] was 16.4 µM [falling, single point].

As for `CNC(=O)CSc1nc(SC)ns1`, the AC50 reads like this: under setting [2], 2.91 µM [falling, single point]; under setting [1], 5.17 µM [falling, single point].

Consider `O=C1CN(C(=O)COC(=O)c2oc3ccccc3c2COc2ccccc2)c2ccccc2N1`, for which the concentration at half-maximal activity (AC50) reads like this: under setting [2], 1.16 µM [rising, full curve, poor fit]; under setting [1], 0.58 µM [rising, full curve].

For `O=C(O)CCSCCC(=O)O`, the cell number change is 8.39%. Further, the concentration at half-maximal activity (AC50) under setting [2] was 0.259 µM [falling, full curve, poor fit].

In the case of `Cc1ccc(-n2c(N)c(C#N)c(-c3ccccc3)c(C#N)c2=O)cc1`, the cell number change was -32.2%. For the same compound, the AC50 under setting [2] is 4.11 µM [falling, full curve, poor fit]. The AC50 under setting [1] is 23.1 µM [falling, partial curve].

`CCCc1nn(C)c2c1C(c1ccncc1)C(C#N)=C(N)O2` (stereo unspecified): the cell number change came out at 1.72%.

In the case of `CCCCNC(=S)N1CCN(c2ccccc2Cl)CC1`, the cell number change amounted to 15.4%. Under setting [1], the half-maximal activity concentration (AC50) was 0.731 µM [rising, full curve, poor fit].

With `Cc1noc(C)c1-c1nc(CSc2ccc(Cl)cc2)no1`, the cell number change is -54.4%. Besides, under setting [2], the half-maximal activity concentration (AC50) is 29.1 µM [falling, single point]. Moreover, the AC50 under setting [1] is 29.1 µM [falling, single point].

For the compound `Cc1ccc(N2C(=O)c3ccc(N)cc3C2=O)cc1`, the cell number change is -8.73%. Under setting [1], the AC50 was 5.17 µM [rising, full curve, poor fit].

For the compound `C[C@@H](NC(=O)c1ncn(C)c1C(=O)N[C@H](C)c1ccccc1)c1ccccc1`, the cell number change is -30.9%. Moreover, the AC50 under setting [2] was 29.1 µM [falling, single point]. Also, the AC50 under setting [1] was 29.1 µM [falling, single point].

With `COc1ccccc1CNC(=O)[C@H](C)NC(=O)[C@@H]1Cc2ccccc2CN1`, the cell number change was -16%.

For the compound `C/C(=N\NC(N)=S)C1C2C3CC4C5CC(C42)C1C53` (stereo unspecified), the cell number change is -34%. Further, the AC50 under setting [1] was 29.1 µM [falling, single point].

On to `C/C(=N/NC(=O)CCC(=O)Nc1cccc(Cl)c1)c1ccc(C)cc1`, for which, under setting [1], the AC50 is 29.1 µM [rising, partial curve, poor fit].

With `O=C(/C=C/c1ccccc1)NCC(=O)N/N=C/c1cccs1`, the cell number change amounted to 18.4%.

`O=C(NCc1ccc(Cl)cc1)NCc1ccc(Cl)cc1`: the cell number change was found to be 8.28%. Further, under setting [1], the concentration at half-maximal activity (AC50) is 4.11 µM [rising, partial curve, poor fit].

`CC(Cc1cccs1)NC(=O)Nc1ccc([N+](=O)[O-])cc1` (stereo unspecified): the cell number change turned out to be 49%. The AC50 under setting [2] is 0.00517 µM [rising, full curve, poor fit]. For the same compound, the AC50 under setting [1] was 1.16 µM [rising, full curve, poor fit].

As for `CCOC(=O)c1cc(C#N)c(SCC(=O)Nc2ccc(C(C)=O)cc2)[nH]c1=O`, the cell number change stood at 4.91%.

For the compound `O=C(COC(=O)c1c[nH]c(=O)[nH]c1=O)NCc1ccccc1`, the cell number change is -17%.

As for `Cc1cc(C)cc(NC(=O)CCN2CCOCC2)c1`, the cell number change was found to be 9.59%. Under setting [1], the AC50 was 0.731 µM [falling, single point].

On to `CCN(CC)S(=O)(=O)c1ccc(O)c(C(=O)OCC(=O)N2CCCC2)c1`, for which the cell number change is -0.451%. Moreover, the half-maximal activity concentration (AC50) under setting [1] is 0.82 µM [falling, full curve].

Consider `Cc1ccc(C)c(OCC(=O)N2CCN(C(=O)c3ccco3)CC2)c1`, for which the cell number change worked out at 26.7%. Also, under setting [1], the AC50 was 6.51 µM [rising, partial curve].

Consider `Oc1ccc(Cl)cc1N=Cc1sc2ccccc2c1Cl`, for which the cell number change is 1.77%. Moreover, the half-maximal activity concentration (AC50) under setting [1] is 0.00461 µM [rising, full curve, poor fit].

Regarding `O=C(O)CNS(=O)(=O)c1ccc(F)cc1`, the cell number change was -24.6%. Further, the AC50 under setting [1] was 3.66 µM [falling, full curve].

Turning to `COc1cc(C(=O)n2cnc3ccccc32)c([N+](=O)[O-])cc1OC`, the cell number change was -5.28%.

`O=C(CC1Nc2cccc3cccc(c23)NC1=O)Nc1ccc(F)cc1` (stereo unspecified): the cell number change is -16%.

`CCN1CCN(c2ccc(S(=O)(=O)N3CCCCC3)cc2NC(=O)Cc2ccc(OC)cc2)CC1`: the cell number change was -13.1%.

Take `COc1ccc(/C=C2/C(=O)N(Cc3ccccc3)N=C2C)cc1`: the cell number change is 78.4%. Besides, the concentration at half-maximal activity (AC50) under setting [2] is 20.6 µM [rising, single point]. Under setting [1], the concentration at half-maximal activity (AC50) was 0.92 µM [falling, full curve, poor fit].

Consider `Cc1cc(C)cc(OCC(=O)OCC(=O)NC2CCCCCC2)c1`, for which the cell number change is -10.7%. Besides, under setting [1], the concentration at half-maximal activity (AC50) is 20.6 µM [rising, single point].

As for `COCCn1c(SCc2cc(=O)n3cc(C)ccc3n2)nc2ccccc2c1=O`, the cell number change is 100%. The concentration at half-maximal activity (AC50) under setting [2] was 25.9 µM [rising, single point].

Take `C/C(=N/NC(=O)C1CC1(c1ccccc1)c1ccccc1)c1ccco1` (stereo unspecified): the cell number change worked out at 5.39%. In addition, the concentration at half-maximal activity (AC50) under setting [1] was 8.2 µM [rising, partial curve, poor fit].

Regarding `O=C(CSC1=NCCS1)Nc1nc2c(s1)CCCC2`, the cell number change turned out to be 17.5%. Further, the concentration at half-maximal activity (AC50) under setting [1] is 29.1 µM [rising, single point].

Regarding `O=C(COC(=O)c1ccccc1)Nc1cccc(S(=O)(=O)NC2=NCCCCC2)c1`, the cell number change is -47.6%. For the same compound, under setting [2], the half-maximal activity concentration (AC50) was 0.206 µM [falling, full curve, poor fit].

For the compound `COc1ccc(CC(=O)Nc2cccc(-c3nnc(-c4ccco4)o3)c2)cc1`, the cell number change was -1.72%. Further, under setting [1], the AC50 was 23.1 µM [falling, single point].

As to `CC(C)NC(=O)CSc1nc(Cc2cccs2)nc2ccccc12`, under setting [1], the concentration at half-maximal activity (AC50) was 5.17 µM [rising, partial curve].

Consider `Cc1nn(C2CCS(=O)(=O)C2)c2nc(C3CC3)cc(C(=O)Nc3cccc(C#N)c3)c12` (stereo unspecified), for which the half-maximal activity concentration (AC50) under setting [2] was 5.8 µM [rising, partial curve, poor fit].

As to `COC(/C=C/Nc1ccc(C)c(C)c1)=C(C#N)C#N`, the cell number change was -40.1%. Further, the half-maximal activity concentration (AC50) under setting [2] was 0.517 µM [falling, full curve, poor fit]. Further, the AC50 under setting [1] was 2.59 µM [falling, full curve].

For `CN(C)c1ccc(/C=N/NC(=O)CCCO)cc1`, the AC50 under setting [1] is 29.1 µM [rising, single point].
